Assay [1] deals with T1, RhoGDI1 (GDP-dissociation inhibitor 1) (human (endogenous in MCF-7)) (UniProt P52565).
T1 sequence: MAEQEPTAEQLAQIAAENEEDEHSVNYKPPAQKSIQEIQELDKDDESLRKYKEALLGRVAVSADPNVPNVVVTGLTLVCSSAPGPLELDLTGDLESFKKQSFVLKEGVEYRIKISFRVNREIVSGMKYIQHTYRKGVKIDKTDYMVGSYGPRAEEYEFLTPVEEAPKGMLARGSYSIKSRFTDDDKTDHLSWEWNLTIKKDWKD
As to the kind of experiment: co-IP; anti-RhoGDI1 antibody, lysates of the MCF-7 lines expressing the SDC4 constructs; Mg2+-lysis buffer; blot for GFP::SDC4, Rac1 or RhoA.

Sequences of proteins named here, by UniProt entry; tags and fusion partners are left off.
UniProt P61586: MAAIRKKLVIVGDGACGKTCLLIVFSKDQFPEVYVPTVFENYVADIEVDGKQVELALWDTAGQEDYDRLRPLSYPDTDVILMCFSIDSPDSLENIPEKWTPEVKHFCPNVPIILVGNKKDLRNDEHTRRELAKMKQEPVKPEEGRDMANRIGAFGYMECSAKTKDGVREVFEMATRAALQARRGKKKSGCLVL

The target of assay [2] is T2, Ser179Glu SDC4 (phosphomimetic), with GFP in the extracellular domain (human) (UniProt P31431).
T2 sequence: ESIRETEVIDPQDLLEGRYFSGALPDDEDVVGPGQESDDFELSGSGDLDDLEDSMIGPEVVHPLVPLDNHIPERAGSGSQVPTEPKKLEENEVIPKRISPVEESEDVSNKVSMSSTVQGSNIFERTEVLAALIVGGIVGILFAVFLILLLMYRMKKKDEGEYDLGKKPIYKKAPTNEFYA
The assay is described as follows: co-IP; anti-GFP antibody (precipitates GFP::SDC4), lysates of the MCF-7 lines expressing the SDC4 constructs, nt MCF-7 as negative control; Mg2+-lysis buffer; blot for Rac1, Pak1 or RhoGDI1.

For assay [3], the target named is T3, wild-type (wt) syndecan-4 with GFP in the extracellular domain (GFP::SDC4) (human) (UniProt P31431).
T3 sequence: T2 sequence with E161S
The description is as above.

Assay [4] addresses T4, Ser179Ala SDC4 (non-phosphorylatable), with GFP in the extracellular domain (human) (UniProt P31431).
T4 sequence: T2 sequence with E161A
The assay is described as above.

For assay [5], the target named is T1, RhoGDI1 (GDP-dissociation inhibitor 1) (human (endogenous in MCF-7)). The assay is described as follows: co-IP; anti-RhoGDI1 antibody, lysates of the MCF-7 lines expressing the SDC4 constructs; Mg2+-lysis buffer; blot for GFP::SDC4, Rac1 or RhoA. This is another data set of the same source.

Substitutions are numbered along the chain they refer to. Where two headings read alike, the source gives them in different places. No constants are given. Whether binding was seen depends on the method and setting. In cells and extracts the contact can be indirect. Some entries that bind do so weakly or less than the wild type. For some of these results: Sequences can lack the tags named with a protein.

For the molecule RhoA (from UniProt P61586 1-193), the binding entry in assay [1] is “binds”.

B1: RhoGDI1 (GDP-dissociation inhibitor 1) (protein, UniProt P52565 1-204)
chain: T1 sequence
Consider B1, for which the binding entry in assay [2], in assay [3] and in assay [4] was “binds” in each case.

B2: wild-type (wt) syndecan-4 with GFP in the extracellular domain (GFP::SDC4) (protein, UniProt P31431 19-198)
chain: T2 sequence with E161S
As to B2, in assay [5], the binding entry is given as “binds”.

B3: Ser179Ala SDC4 (non-phosphorylatable), with GFP in the extracellular domain (protein, UniProt P31431 19-198)
chain: T2 sequence with E161A
Regarding B3, in assay [5], the binding result is listed as “binds”.

B4: Ser179Glu SDC4 (phosphomimetic), with GFP in the extracellular domain (natural protein, human, UniProt P31431 19-198, looked up)
chain: T2 sequence
notes: syndecan-4 (SDC4), human, GenBank CAG46871.1; GFP inserted into the extracellular domain at position 131; also called phosphomimetic SDC4; source: MCF-7, stably transfected, in lysate; not shown: GFP, internal (at position 131), kept
As to B4, in assay [5], the binding entry is “binds”.

These data come from PMC5679609 (PLoS ONE, 2017).
